## Binding screen against folded nucleic acids

Source: the ROBIN nucleic acid binder screens (doi:10.1002/anie.202211358).

Targets (5′ to 3′):
T1: SAM-II riboswitch RNA pseudoknot, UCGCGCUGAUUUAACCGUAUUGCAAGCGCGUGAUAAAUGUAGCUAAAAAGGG. About 21,000 compounds screened, about 200 hits.
T2: TPP riboswitch RNA three-way junction, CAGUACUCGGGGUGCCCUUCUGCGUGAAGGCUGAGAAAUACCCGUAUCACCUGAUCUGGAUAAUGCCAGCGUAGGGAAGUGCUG. About 24,000 compounds screened, about 160 hits.
T3: PreQ1 riboswitch RNA pseudoknot, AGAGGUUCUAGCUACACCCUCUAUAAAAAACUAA. From B. subtilis. About 24,000 compounds screened, about 170 hits.

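Compounds were printed on reactive glass slides in duplicate spots, a dye-labelled oligonucleotide was laid over them, and the fluorescence left after washing was read. The data file lists only calls. An earlier report of the laboratory on the PreQ1, TPP and SAM-II riboswitches (doi:10.1038/s41467-019-09493-3) used 1 µM RNA for 2 h and required a mean Z-score above 3 (spot signal-to-noise against the whole library), a score well above that on a control array, and duplicate spots agreeing (coefficient of variation under 100); it then also set aside compounds that hit other targets, which this list keeps. The cut-offs behind this list may differ. The calls come from the array alone, and fixing a compound to the slide can hide its binding.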 A compound is marked active if it was called a hit and inactive if it was screened but was not. The compounds are a random part of those screened. A target missing from an entry has no call listed here.

* CC(=O)c1cccc(NC(=O)c2sc3nc4c(cc3c2N)CCCC4)c1 : T1: inactive; T2: inactive; T3: inactive
* COc1cc(C2c3c(-c4ccccc4O)n[nH]c3C(=O)N2CCO)ccc1OCC(C)C (stereo unspecified) : T2: inactive; T3: inactive
* CCN(CCCCO)C(=O)c1cccc(-c2ccc(O)cc2)c1 : T1: inactive; T2: inactive; T3: inactive
* CC(C)c1nc(CN(C)C(=O)c2ccc3c(c2)ncn3CCO)no1 : T1: inactive; T2: inactive; T3: inactive
* NCCn1cc(C(=O)NCCc2cc(N3CCCC3)ncn2)nn1 : T1: inactive; T2: inactive; T3: inactive
* O=C(NCc1cc2n(n1)CCNC2)c1ccc(-n2cnnc2)cc1 : T1: inactive; T2: inactive; T3: inactive
* CC(=O)C1=C(C)OC(N)=C(C#N)C1c1ccc(C#N)cc1 (stereo unspecified) : T1: inactive; T2: inactive; T3: inactive
* O=C(c1ccccc1-n1cncn1)N1CCNC(c2ccccc2)C1 (stereo unspecified) : T1: inactive; T2: inactive; T3: inactive
* CN(C)c1nc2c(c(N3CCC(O)CC3)n1)CN(Cc1ccco1)CC2 : T1: inactive; T2: inactive; T3: inactive
* NC1(C(=O)NCC2CCN(Cc3nc4ccccc4[nH]3)CC2)CC1 : T1: inactive; T2: inactive; T3: inactive
* CC(C)(C)NC1CCCCC1NS(=O)(=O)c1ccc(Cl)cc1 (stereo unspecified) : T2: inactive; T3: inactive
* CCCC#CC(C)(O)CNC(Cc1ccccc1)C(=O)O (stereo unspecified) : T1: inactive; T2: inactive; T3: inactive
* Cc1cc(NC(C)C)n2nc(-c3ccc(Cl)cc3)c(C)c2n1 : T2: inactive; T3: inactive
* Cn1c(CNCc2ccccc2)nc2ccccc21 : T1: inactive; T2: inactive; T3: inactive
* O=C(c1ccc(-c2nc[nH]n2)cc1)N1CCC(Cc2ccc(CO)cc2)C1 (stereo unspecified) : T1: inactive; T2: inactive; T3: inactive
* CNC(=O)c1cccc(-c2ccc3c(N4CCOC[C@H]4C)nc(N4CCOC[C@H]4C)nc3n2)c1 : T1: inactive; T2: inactive; T3: inactive
* Cn1ncc2c(=O)[nH]c(CN3CCC4(CC3)Nc3ccccc3NC4=O)nc21 : T1: inactive; T2: inactive; T3: inactive
* C#CCOc1ccc(C2C(C#N)=C(N)Oc3cc4c(cc32)OCO4)cc1OC (stereo unspecified) : T1: inactive; T2: inactive; T3: inactive
* CCCc1nc(C)c2c(=O)nc(-c3cc(S(=O)(=O)N4CCN(CC)CC4)ccc3OCC)[nH]n12 : T1: inactive; T2: inactive; T3: inactive
* Cc1ccn2c(C(=O)N3CCNCC3C(=O)N3CCCC3)c(C)nc2c1 (stereo unspecified) : T1: inactive; T2: inactive; T3: inactive
* Cc1ccc(-c2nccn2CC2CCCN(CCO)C2)c2cccnc12 (stereo unspecified) : T1: inactive; T2: inactive; T3: inactive
* Cc1ccsc1[C@@H]1CCN(C(=O)CCc2cc(O)no2)C[C@H]1O : T1: inactive; T2: inactive; T3: inactive
* Clc1ccccc1-c1nc2ccccc2[nH]1 : T1: inactive; T2: inactive; T3: inactive
* CCC(CNc1cc(OC)cc2cccnc12)NC1CCCCC1 (stereo unspecified) : T1: inactive; T2: inactive; T3: inactive
* Cc1c(NC(=O)CSc2nnc(N)s2)c(=O)n(-c2ccccc2)n1C : T1: inactive; T2: inactive; T3: inactive
* CCc1cc(NCC(O)c2ccco2)n2nccc2n1 (stereo unspecified) : T1: inactive; T2: inactive; T3: inactive
* Cc1nnc(SCCCNc2nc(CCN)nc3sc(C)c(C)c23)s1 : T1: inactive; T2: inactive; T3: inactive
* Cc1ccc2c(c1)C(O)(CC(=O)c1cccc(N)c1)C(=O)N2 (stereo unspecified) : T1: inactive; T2: inactive; T3: inactive
* CCOc1ccccc1-n1nnc(-c2nc(-c3ccccc3Cl)no2)c1N : T2: inactive; T3: inactive
* Cc1nn(C)c(Cl)c1S(=O)(=O)N1CCC2(CCNCC2)C1 : T1: inactive; T2: inactive; T3: inactive
* CCc1nc2ccccc2n1CC(O)COc1ccc(Cl)c(C)c1 (stereo unspecified) : T2: inactive; T3: inactive
* COc1ccc(S(=O)(=O)N2CCCC(O)(CO)CC2)cc1F (stereo unspecified) : T1: inactive; T2: inactive; T3: inactive

For reference, 2 entries once more:

{"structure": "CC(=O)C1=C(C)OC(N)=C(C#N)C1c1ccc(C#N)cc1", "stereo": "stereo unspecified", "T1": "inactive", "T2": "inactive", "T3": "inactive"}
{"structure": "CC(C)c1nc(CN(C)C(=O)c2ccc3c(c2)ncn3CCO)no1", "T1": "inactive", "T2": "inactive", "T3": "inactive"}